Measured values: patent US20230355705A1, “DISCOVERY OF YEATS2 YEATS DOMAIN INHIBITORS AS NOVEL ANTI-CANCER AGENTS” (The University of Hong Kong, priority 2022, published 2023)
Not every detail of the peptide structures is certain; ends, links or a residue may be inferred. Residues, ends and D or L forms follow the SMILES beside them. *: point of attachment. X1 = O=C(c1cc2ccc(Br)cc2o1)*; Ms = CS(=O)(=O)*

What was measured:
YEATS2 YEATS domain [1] = molecular target: T1, YEATS2 YEATS domain (Homo sapiens, UniProt Q9ULM3); assay: competitive photo-cross-linking assay; format: binding; settings: for IC50: toward YEATS2 YEATS, values in text
T1 construct: 201-332 containing an N-terminal 10×His-SUMO tag was overexpressed in Escherichia coli BL21 (DE3); 10×His-SUMO (N, cleaved yes); made in house; host or cells: Escherichia coli BL21 (DE3)
T1 sequence (Q9ULM3 201-332 limits assumed): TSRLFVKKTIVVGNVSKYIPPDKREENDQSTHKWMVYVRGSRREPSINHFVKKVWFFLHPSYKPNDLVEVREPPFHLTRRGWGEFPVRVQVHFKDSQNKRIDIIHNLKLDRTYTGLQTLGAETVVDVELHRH
Method: The probes in the absence or presence of different concentrations of competitors were incubated with recombinant proteins (5 or 20 ng/µL) in binding buffer (50 mM HEPES, 150 mM NaCl, 2 mM MgCl2, 0.1% Tween-20, 20% glycerol, pH 7.5, with 50 ng/µL BSA) for 10 min at 4° C. Then, the samples were irradiated at 365 nm using UV lamp for 20 min in 96-well on ice.
To the prepared photo-cross-linking samples, we added 100 µM rhodamine-N3 for in-gel fluorescence (10 mM stock in DMSO), followed by 1 mM TCEP (freshly prepared 50 mM stock in H2O) and 100 µM TBTA (10 mM stock in DMSO); finally, the reactions were initiated by the addition of 1 mM CuSO4 (freshly prepared 50 mM stock in H2O). The reactions were incubated for 1 h at room temperature (22 to 25° C.) with regular vortexing. The reactions were quenched by adding 5 volumes of ice-cold acetone and placed at — 20° C. overnight to precipitate proteins.
Samples after protein precipitation were centrifuged at 13,000 × g for 5 min at 4° C. The supernatant was discarded, and the pellet was washed with ice-cooled acetone and air-dried for 10 min. The proteins were resuspended in 1 × LDS sample loading buffer (Invitrogen, Waltham, MA) with 50 mM DTT and heated at 95° C. for 8 min. Samples were then resolved by SDS-PAGE. The labeled proteins were visualized by scanning the gel on a Typhoon 9410 variable mode imager (excitation 532 nm, emission filter 580 nm).
YEATS domain of YEATS2 is newly identified as histone benzoylation reader. […] Based on the decapeptide (H322-32K27bz), we designed a photoaffinity probe H3K27bz-Dzyne (FIG. 1A) in which the Ala24 was replaced by a diazirine-containing photo reactive amino acid (photo-leu). […] If the inhibitor can occupy the same binding pocket with probe, the fluorescent intensity would decrease (FIG. 1B).

YEATS2 YEATS domain [2] = molecular target: T1, YEATS2 YEATS domain; assay: isothermal titration calorimetry; format: binding; settings: ITC, 15° C.
endogenous YEATS2 = molecular target: T2, endogenous YEATS2 (Homo sapiens, UniProt Q9ULM3); assay: cellular thermal shift assay (CETSA) in H1299 cells; format: cell-based; settings: 20 µM, e.g. 46.5° C. and 47° C.
T2 construct: endogenous in cells; host or cells: H1299
T2 sequence (Q9ULM3 1-1422): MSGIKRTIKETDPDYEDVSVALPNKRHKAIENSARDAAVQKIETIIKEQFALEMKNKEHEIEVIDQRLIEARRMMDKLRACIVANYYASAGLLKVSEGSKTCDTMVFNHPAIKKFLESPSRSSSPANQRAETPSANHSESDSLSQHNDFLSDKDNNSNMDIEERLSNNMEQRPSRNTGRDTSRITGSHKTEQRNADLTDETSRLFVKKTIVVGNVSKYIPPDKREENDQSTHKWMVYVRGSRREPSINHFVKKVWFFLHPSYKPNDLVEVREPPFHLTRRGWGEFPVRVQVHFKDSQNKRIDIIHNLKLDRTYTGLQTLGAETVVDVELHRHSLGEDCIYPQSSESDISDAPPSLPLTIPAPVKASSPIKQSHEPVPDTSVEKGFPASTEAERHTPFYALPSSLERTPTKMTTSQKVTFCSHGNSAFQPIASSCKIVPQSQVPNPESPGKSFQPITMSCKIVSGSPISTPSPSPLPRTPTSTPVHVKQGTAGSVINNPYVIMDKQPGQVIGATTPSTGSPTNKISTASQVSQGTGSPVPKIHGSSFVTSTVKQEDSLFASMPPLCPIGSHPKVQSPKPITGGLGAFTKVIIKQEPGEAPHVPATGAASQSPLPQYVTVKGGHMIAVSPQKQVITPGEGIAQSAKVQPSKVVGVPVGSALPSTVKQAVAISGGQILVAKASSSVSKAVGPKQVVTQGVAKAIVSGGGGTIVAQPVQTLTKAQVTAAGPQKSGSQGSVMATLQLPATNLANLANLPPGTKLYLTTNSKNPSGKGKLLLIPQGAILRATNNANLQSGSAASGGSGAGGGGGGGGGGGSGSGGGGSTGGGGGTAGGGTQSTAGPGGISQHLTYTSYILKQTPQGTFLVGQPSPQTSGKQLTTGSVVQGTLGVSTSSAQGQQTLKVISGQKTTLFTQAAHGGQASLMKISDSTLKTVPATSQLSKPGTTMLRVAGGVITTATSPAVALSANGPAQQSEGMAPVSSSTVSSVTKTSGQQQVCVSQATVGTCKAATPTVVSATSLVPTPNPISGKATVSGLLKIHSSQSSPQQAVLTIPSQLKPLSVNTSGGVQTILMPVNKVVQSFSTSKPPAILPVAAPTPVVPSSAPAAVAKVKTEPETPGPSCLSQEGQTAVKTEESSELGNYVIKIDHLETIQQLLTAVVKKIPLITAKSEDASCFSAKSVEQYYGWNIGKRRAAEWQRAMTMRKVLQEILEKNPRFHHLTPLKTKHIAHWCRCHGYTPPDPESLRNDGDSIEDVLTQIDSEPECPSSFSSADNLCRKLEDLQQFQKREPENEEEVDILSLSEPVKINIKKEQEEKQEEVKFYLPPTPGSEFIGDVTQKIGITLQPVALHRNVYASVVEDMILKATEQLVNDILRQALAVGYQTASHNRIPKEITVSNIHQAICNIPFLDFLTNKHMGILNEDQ

3-YEATS2-YEATS-GFP = assay: FRAP assay, tandem YEATS2 YEATS-GFP in U2OS cells; format: cell-based, human; settings: 20 µM, compared with DMSO
[3] = tested on: YEATS2 enrichment on ribosomal genes (RP7, RPL8, RPL35 and RPL38); assay: ChIP-qPCR of YEATS2 enriched genes; format: cell-based, human; settings: H1299 stably expressing 3×Flag-YEATS2
A549 cells = assay: colony formation assay A549; format: cell-based, human; settings: A549, 14 days

Row | Structure (SMILES) | IC50 (YEATS2 YEATS domain [1]) [µM] | fold increase of potency (YEATS2 YEATS domain [1]; than MsKbfSAP) [fold] | Kd (YEATS2 YEATS domain [2]) [nM] | stability of YEATS2 (CETSA) (endogenous YEATS2) | recovery time after photo bleaching (3-YEATS2-YEATS-GFP) | gene abundance (ChIP-qPCR) [3] | colony formation (A549 cells)
1 | CC(=O)N[C@@H](CCCCNC(=O)c1cc2ccccc2o1)C(=O)N[C@@H](CO)C(=O)N[C@@H](C)C(N)=O [AcKbfSA] | 32.1 | – | – | – | – | – | –
2 | CC(=O)N[C@@H](CCCCNC(=O)c1cc2ccccc2o1)C(=O)N[C@@H](CO)C(N)=O [AcKbfS] | 58.8 | – | – | – | – | – | –
3 | C[C@H](NC(=O)[C@H](CO)NC(=O)[C@H](CCCCNC(=O)c1cc2ccc(Br)cc2o1)NS(C)(=O)=O)C(=O)N1CCC[C@H]1C(N)=O [MsKbr-bfSAP] (Ms-K(X1)SAP-NH2; C-terminus assumed) | 0.23 | 2.7 | 89 | obviously enhanced the stability of YEATS2 | significant increase of recovery time | gene abundance was reduced | fewer colonies compared to the control cells
